By UniProt entry, the sequences of proteins in these tests, tags left out. Where a name states a change or a piece, a line headed by the entry shows the natural chain unless it says otherwise.
UniProt P56524: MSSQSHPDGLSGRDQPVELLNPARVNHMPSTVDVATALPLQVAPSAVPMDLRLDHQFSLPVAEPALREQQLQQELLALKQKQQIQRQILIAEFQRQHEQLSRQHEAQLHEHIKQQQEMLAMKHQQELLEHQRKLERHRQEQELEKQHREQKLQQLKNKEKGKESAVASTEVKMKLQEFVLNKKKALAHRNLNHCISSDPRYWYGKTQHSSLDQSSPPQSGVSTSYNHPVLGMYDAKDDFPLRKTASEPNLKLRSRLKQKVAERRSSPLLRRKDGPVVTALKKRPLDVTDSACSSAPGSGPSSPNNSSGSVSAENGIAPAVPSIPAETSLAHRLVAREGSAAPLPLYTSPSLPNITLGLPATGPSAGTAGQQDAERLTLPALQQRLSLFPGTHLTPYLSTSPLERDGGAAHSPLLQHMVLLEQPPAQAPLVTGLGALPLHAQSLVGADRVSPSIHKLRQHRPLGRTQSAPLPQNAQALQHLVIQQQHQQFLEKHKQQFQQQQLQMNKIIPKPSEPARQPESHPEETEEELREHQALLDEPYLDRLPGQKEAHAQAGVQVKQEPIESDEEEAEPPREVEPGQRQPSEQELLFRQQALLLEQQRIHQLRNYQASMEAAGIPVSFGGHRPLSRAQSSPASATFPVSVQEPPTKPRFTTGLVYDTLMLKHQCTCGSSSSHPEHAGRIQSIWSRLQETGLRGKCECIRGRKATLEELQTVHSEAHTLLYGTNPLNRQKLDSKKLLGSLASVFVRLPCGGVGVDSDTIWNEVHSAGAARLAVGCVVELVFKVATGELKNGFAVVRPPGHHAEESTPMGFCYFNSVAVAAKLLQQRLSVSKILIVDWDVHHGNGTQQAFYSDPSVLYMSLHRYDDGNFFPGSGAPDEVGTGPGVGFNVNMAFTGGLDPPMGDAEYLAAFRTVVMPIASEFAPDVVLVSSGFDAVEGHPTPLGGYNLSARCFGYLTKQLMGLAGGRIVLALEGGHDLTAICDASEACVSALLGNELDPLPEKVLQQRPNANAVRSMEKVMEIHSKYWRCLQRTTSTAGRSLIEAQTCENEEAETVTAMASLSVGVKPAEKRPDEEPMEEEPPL
UniProt O15379: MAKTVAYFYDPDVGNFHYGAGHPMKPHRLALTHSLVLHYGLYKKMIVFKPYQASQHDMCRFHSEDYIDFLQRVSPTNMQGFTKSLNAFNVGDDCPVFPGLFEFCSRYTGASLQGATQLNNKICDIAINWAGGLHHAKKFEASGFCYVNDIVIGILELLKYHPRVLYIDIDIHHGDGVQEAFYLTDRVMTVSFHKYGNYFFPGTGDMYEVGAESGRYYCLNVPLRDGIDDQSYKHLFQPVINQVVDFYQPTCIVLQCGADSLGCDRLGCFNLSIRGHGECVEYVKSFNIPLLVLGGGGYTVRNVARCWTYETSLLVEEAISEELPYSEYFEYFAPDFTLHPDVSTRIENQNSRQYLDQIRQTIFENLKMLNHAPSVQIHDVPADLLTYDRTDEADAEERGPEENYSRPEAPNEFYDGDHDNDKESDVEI

In article doi:10.1101/2025.10.14.682279:

Experiments:
[1] = target: Flag-HDAC4-M902Hfs (human) (UniProt P56524); experiment: co-IP
[2] = target: Flag-HDAC4-M902Wfs (human) (UniProt P56524); experiment: co-IP

binding [1]: no binding
binding [2]: no binding
Substance: HDAC3 (from UniProt O15379 1-428)

These are yes or no findings as the source states them, for the method shown. In cells and extracts the contact can be indirect.
